Test results as given in PubChem BioAssay (NCATS).
“And” between values parts separate entries of the source, which are not always exact repeats. Identical values can stand only once. The list shows a part of the results. The main result of the screen is listed elsewhere. These columns were measured beside it and carry no call. For some assays here: Compounds called inactive in the main read-out are mostly missing here. The note in brackets gives the kind of curve behind each potency; many fits are weak.

Tests used:
[1] = qHTS Assay for Inhibitors of PDE-IV (AID 607); details: HEK293 ACTOne CNG channel cells, membrane potential fluorescence; measured here: parental cell counter-screen
Procedure, shortened: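 The readout is membrane depolarisation from a cAMP-sensing CNG channel, detected with a potential dye at ex 535/em 590. Cells were HEK293-derived (endogenous PDE-IV) at 1000 cells/well, titrated up to 22.9 uM final.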

[2] = Validation of Assay for Modulators of Lamin A Splicing (AID 1459); details: Lamin A splicing dual RFP/GFP fluorescence reporter, ratio
Procedure, shortened: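 Dual-reporter HeLa S3 line (lamin A-EGFP minigene, DsRed2) treated with compounds 48 hrs, 0.5% DMSO final. Endpoint: EGFP/DsRed2 total intensity ratio from laser-scanning microplate cytometry.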

[3] = qHTS Assay for Lipid Storage Modulators (AID 1519); details: Drosophila S3 cells, BODIPY lipid droplet/cell ratio, laser cytometry, cells loaded with oleic acid
Procedure, shortened: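 Cells seeded at 5,000 per well were treated with compounds over a concentration series and loaded with oleic acid (400 uM, as added). Lipid droplet fluorescence (488 nm excitation, 500-530 nm channel) was read by laser-scanning cytometry and normalized to 20 uM Triacsin C.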

[4] = qHTS Assay for Modulators of Human Peripheral Myelin Protein 22 (PMP22) Expression/Activity (AID 1967); details: Cell-based PMP22 reporter, dual-color luciferase ratio
Procedure, shortened: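 Engineered MSC80 cells, Pmp22-promoter green and EF-alpha red luciferase reporters; 24h compound treatment at 37 °C. Concentration-response fits on green, red and ratio signals, each overlap-corrected, with %Activity normalized to untreated wells.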

[5] = qHTS Validation Assay to Find Inhibitors of Chronic Active B-Cell Receptor Signaling (AID 485345); details: ABC-DLBCL cells, chronic BCR signaling reporter
Procedure, shortened: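 TMD8 ABC-DLBCL cells stably carrying doxycycline-inducible IkappaBalpha–green luciferase fusion plus unfused red luciferase; compounds 46 uM to 3 nM, 4 h at 37C with doxycycline. Corrected green/red luminescence ratio normalized to 10 uM MG-132 and basal cell wells; curves fitted.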

[6] = Nrf2 qHTS screen for inhibitors: Validation (AID 493153); details: A549 ARE-Fluc reporter, 18-24 h; AC50: CellTiter-Fluor fluorescence read, measured here: cytotoxicity CellTiter-Fluor AC50; viability change: measured here: cytotoxicity max response
Procedure, shortened: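 Luminescence from an ARE-firefly luciferase reporter in A549 cells gives Nrf2 inhibition; an earlier CellTiter-Fluor fluorescent read flags cytotoxicity. Cells in 5% FBS OPTI-MEM received compound dilution series for 18-24 h at 37°C.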

[7] = qHTS drug screen for cell cycle checkpoint inhibitors in PARPi-resistant BRCA-mutant ovarian cancer cell lines. (AID 1963452); details: PEO1/OlaR viability, CellTiter-Glo luminescence, 96 h; measured here: PEO4 viability
Procedure, shortened: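 PEO1, PEO4 and PEO1/OlaR ovarian cancer cells, 600 per well, exposed 96 h at 37C to a dilution series. Viability read by CellTiter-Glo luminescence, normalized to DMSO and empty wells; activity summarized as Z-AUC.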

[8] = qHTS for identification of novel therapeutic agents for treatment of microphthalmiaassociated transcription factor (MiT) renal cell carcinoma (RCC) (AID 1963991); details: CellTiter-Glo, 48 h; for z-score: stronger effect = lower value;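 as to z-score: curves scaled with 100% = DMSO viability and 0% = empty wells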
Procedure, shortened: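 UOK109/UOK124/UOK145 (TFE3 fusions, three partners); 500 cells/well; MIPE v4.0, 1912 cpds, 11 conc.; 48 h, 37 C; CellTiter-Glo, 15 min RT; lum. Norm.: DMSO 100%, empty 0%.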

[9] = NCATS anti-infectives library activity on the primary C. elegans qHTS viability assay (AID 1745855); details: C. elegans worm area imaging, day 7, measured here: worm number
Procedure, shortened: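 Viability read-out is GFP fluorescence of PE254-GFP-FLuc C. elegans, measured by laser cytometry (488 nm) at day 0, 3 and 7. Ten L1 worms per well were incubated 7 days at 21 °C with compounds and bacterial capsules in S medium.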

[10] = measured here: cell count channel max response
[11] = measured here: cell number channel AC50
[12] = measured here: lipid (BODIPY) channel AC50
[13] = measured here: lipid channel max response
[14] = measured here: green reporter channel AC50, mouse Pmp22 promoter in mouse Schwann cells
[15] = measured here: red reporter channel AC50, EF-alpha promoter control reporter in MSC80 mouse Schwann cells
[16] = TFE3-RCC UOK109 viability, measured here: UOK109 Z-AUC
[17] = TFE3-RCC viability, measured here: UOK124 Z-AUC
[18] = TFE3-RCC viability, measured here: UOK145 Z-AUC

## CCCCCCCC/C=C\CCCCCCCC(=O)NCCc1ccc(O)c(O)c1
[1]
  AC50: 3.98 µM [rising, partial curve, poor fit]
[2]; measured here: GFP channel
  AC50: 10 µM [falling, partial curve]
[2]; measured here: RFP channel
  AC50: 5.62 µM [falling, partial curve]
[3]; [10]
  max response: -85.5%
[3]; [11]
  AC50: 35.5 µM [falling, partial curve, poor fit]
[3]; [12]
  AC50: 35.5 µM [falling, partial curve, poor fit]
[3]; [13]
  max response: -87.1%
[4]; [14]
  AC50: 8.49 µM [falling, full curve]
[4]; [15]
  AC50: 16.9 µM [falling, full curve]
[5]; measured here: CBG/CBR ratio read-out
  AC50: 18.4 µM [falling, single point]
[6]
  AC50: 5.17 µM [falling, partial curve, poor fit]
  viability change: -20.4%

## CCCCCC(O)c1cccc(OCc2ccc3ccccc3n2)c1 (stereo unspecified)
[2]; measured here: GFP channel
  AC50: 31.6 µM [falling, single point]
[2]; measured here: RFP channel
  AC50: 31.6 µM [falling, single point]
[3]; [10]
  max response: -25.1%
[3]; [11]
  AC50: 7.08 µM [falling, full curve, poor fit]
[3]; [12]
  AC50: 7.94 µM [falling, full curve, poor fit]
[3]; [13]
  max response: -30.9%
[4]; [14]
  AC50: 75.7 µM [falling, partial curve, poor fit]
[4]; [15]
  AC50: 75.7 µM [falling, partial curve, poor fit]
[6]
  viability change: 0.811%

## NCCCCNCCCN
[2]; measured here: GFP channel
  AC50: 35.5 µM [falling, single point]
[2]; measured here: RFP channel
  AC50: 35.5 µM [falling, single point]
[3]; [10]
  max response: -11.7% and -3%
[3]; [11]
  AC50: 0.00251 µM [falling, full curve, poor fit]
[3]; [12]
  AC50: 0.00224 µM [falling, full curve, poor fit]
[3]; [13]
  max response: -7.83% and -2.1%
[4]; [14]
  AC50: 95.3 µM [falling, single point]
[4]; [15]
  AC50: 15.1 µM [rising, partial curve]
[7]
  AC50: 24.5 µM [falling, single point]
[8]; [16]
  z-score: 0.25
[8]; [17]
  z-score: 0.207
[8]; [18]
  z-score: 0.569

## NCCCS(=O)(=O)O
[2]; measured here: GFP channel
  AC50: 3.98 µM [rising, full curve, poor fit]
[2]; measured here: RFP channel
  AC50: 15.8 µM [rising, single point]
[3]; [10]
  max response: 37.5%
[3]; [11]
  AC50: 39.8 µM [rising, single point]
[3]; [12]
  AC50: 39.8 µM [rising, single point]
[3]; [13]
  max response: 39.2%
[4]; [15]
  AC50: 53.6 µM [falling, partial curve]

## CN1CCN2c3ccccc3Cc3ccccc3C2C1 (stereo unspecified)
[2]; measured here: GFP channel
  AC50: 14.1 µM [rising, single point]
[2]; measured here: RFP channel
  AC50: 14.1 µM [falling, partial curve, poor fit]
[3]; [10]
  max response: 47.6%
[3]; [11]
  AC50: 35.5 µM [rising, single point]
[3]; [12]
  AC50: 35.5 µM [rising, single point]
[3]; [13]
  max response: 48.5%
[4]; [14]
  AC50: 75.7 µM [falling, partial curve, poor fit]
[4]; [15]
  AC50: 84.9 µM [falling, single point]
[8]; [16]
  z-score: -0.049
[8]; [17]
  z-score: 0.225
[8]; TFE3-RCC viability, measured here: UOK124 cell viability
  AC50: 23.5 µM [falling, single point]
[8]; [18]
  z-score: 0.362
[8]; TFE3-RCC viability, measured here: UOK145 cell viability
  AC50: 14.8 µM [falling, partial curve, poor fit]

## O=[N+]([O-])c1ccc(-c2nc(-c3ccc(F)cc3)c(-c3ccncc3)[nH]2)cc1
[2]; measured here: GFP channel
  AC50: 0.2 µM [falling, full curve, poor fit]
[2]; measured here: RFP channel
  AC50: 12.6 µM [falling, partial curve, poor fit]
[3]; [10]
  max response: -81.3%
[3]; [11]
  AC50: 28.2 µM [falling, partial curve, poor fit]
[3]; [12]
  AC50: 31.6 µM [falling, partial curve, poor fit]
[3]; [13]
  max response: -87.7%
[4]; [14]
  AC50: 47.8 µM [falling, partial curve]
[4]; [15]
  AC50: 60.1 µM [falling, partial curve, poor fit]
[5]; measured here: CBR control luciferase (viability counter)
  AC50: 9.2 µM [falling, partial curve]

## CN(C)CCCN1c2ccccc2Sc2ccc(C(F)(F)F)cc21
[2]; measured here: GFP channel
  AC50: 14.1 µM [falling, partial curve, poor fit]
[2]; measured here: RFP channel
  AC50: 15.8 µM [falling, partial curve]
[3]; [10]
  max response: 52.4%
[3]; [11]
  AC50: 3.16 µM [falling, full curve, poor fit]
[3]; [12]
  AC50: 3.16 µM [falling, full curve, poor fit]
[3]; [13]
  max response: 57.5%
[4]; [14]
  AC50: 30.1 µM [falling, full curve]
[4]; [15]
  AC50: 26.9 µM [falling, full curve]
[9]
  AC50: 4.59 µM [falling, full curve, poor fit]
